Laboratory results taken from PMC8133748.
These are yes or no findings as the source states them, for the method shown. Binding seen in cells or lysates may run through a third protein. Some results given as binding are weak or reduced against the parent protein; the word gives no strength.

By UniProt entry, the sequences of proteins in these tests, tags left out.
UniProt Q8K2F0: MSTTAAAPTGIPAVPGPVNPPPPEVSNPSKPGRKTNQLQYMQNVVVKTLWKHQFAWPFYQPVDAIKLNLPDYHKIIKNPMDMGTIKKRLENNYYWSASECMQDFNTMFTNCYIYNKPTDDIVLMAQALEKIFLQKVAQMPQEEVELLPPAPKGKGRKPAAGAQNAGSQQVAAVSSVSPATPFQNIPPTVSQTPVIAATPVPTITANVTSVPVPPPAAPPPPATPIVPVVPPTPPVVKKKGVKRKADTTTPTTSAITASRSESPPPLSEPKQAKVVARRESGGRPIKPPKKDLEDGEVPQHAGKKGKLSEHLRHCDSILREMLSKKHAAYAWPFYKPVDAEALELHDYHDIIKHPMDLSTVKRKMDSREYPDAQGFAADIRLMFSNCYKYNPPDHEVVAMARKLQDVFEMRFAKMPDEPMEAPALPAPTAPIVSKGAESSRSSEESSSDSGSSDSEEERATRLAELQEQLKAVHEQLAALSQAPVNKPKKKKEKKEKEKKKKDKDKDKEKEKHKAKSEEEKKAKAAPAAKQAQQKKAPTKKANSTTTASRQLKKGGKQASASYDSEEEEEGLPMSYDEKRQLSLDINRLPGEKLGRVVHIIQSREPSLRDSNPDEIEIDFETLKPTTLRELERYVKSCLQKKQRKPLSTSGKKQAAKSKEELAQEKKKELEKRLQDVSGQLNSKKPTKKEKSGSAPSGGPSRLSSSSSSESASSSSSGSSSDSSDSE
UniProt Q7JJ13: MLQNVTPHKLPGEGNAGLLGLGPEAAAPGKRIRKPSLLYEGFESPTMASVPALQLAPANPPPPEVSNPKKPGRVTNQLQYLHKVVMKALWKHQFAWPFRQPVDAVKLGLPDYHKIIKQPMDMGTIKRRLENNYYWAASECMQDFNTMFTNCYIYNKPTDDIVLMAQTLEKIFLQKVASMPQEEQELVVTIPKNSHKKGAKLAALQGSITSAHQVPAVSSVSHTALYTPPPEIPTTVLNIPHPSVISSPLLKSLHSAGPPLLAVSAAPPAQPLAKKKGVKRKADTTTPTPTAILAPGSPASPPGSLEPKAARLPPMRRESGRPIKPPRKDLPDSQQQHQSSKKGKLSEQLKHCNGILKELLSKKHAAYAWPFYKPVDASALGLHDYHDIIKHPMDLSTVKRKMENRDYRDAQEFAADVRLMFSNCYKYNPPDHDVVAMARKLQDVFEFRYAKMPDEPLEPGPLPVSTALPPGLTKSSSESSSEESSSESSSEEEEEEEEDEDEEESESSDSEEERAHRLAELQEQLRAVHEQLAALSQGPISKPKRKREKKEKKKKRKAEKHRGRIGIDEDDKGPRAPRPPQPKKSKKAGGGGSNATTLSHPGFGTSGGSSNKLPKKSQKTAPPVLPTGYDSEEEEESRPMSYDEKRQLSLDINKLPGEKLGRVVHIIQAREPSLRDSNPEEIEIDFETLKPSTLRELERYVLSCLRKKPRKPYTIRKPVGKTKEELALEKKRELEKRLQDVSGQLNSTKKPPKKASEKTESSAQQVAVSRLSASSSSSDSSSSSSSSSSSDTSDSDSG

How the values were obtained:
[1] = target: BRD3 (mouse (endogenous in mouse cortical neurons)) (UniProt Q8K2F0); test: co-IP; endogenous proteins; nuclear extracts of unstimulated (1 uM TTX overnight) or KCl-depolarised (55 mM, 30 min) mouse cortical neurons; extracted at 600 mM NaCl, diluted to 100 mM NaCl; antibody overnight at 4 C, Protein A/G PLUS Agarose; immunoblot
[2] = target: BRD2 (mouse (endogenous in mouse cortical neurons)) (UniProt Q7JJ13); test: as above

| binding [1] | binding [2] | Substance |
| --- | --- | --- |
| binds | – | BRD2 (from UniProt Q7JJ13 1-798) |
| – | binds | BRD3 (from UniProt Q8K2F0 1-726) |
